The results in this text go back to publication PMC11061317.

Results are given in words; binding and its absence hold for the method and conditions named. Binding seen in cells or lysates may run through a third protein. These calls come from enrichment with a bait or labelling near it, and not all partners need be listed. No binding means not detected with the bait.

The experiment concerns the target PhastID-tagged Rheb (UniProt Q15382). As to the kind of experiment: proximity labelling; PhastID-Rheb stably expressed in HeLa 229 cells; serum starved 16 h, then 0.9 uM insulin plus 50 uM biotin for 15 min or 1 h; RIPA whole cell lysate, streptavidin magnetic bead pull-down, LC-MS/MS, triplicates; PhastID alone and biotin alone as controls.

B1: TCTP (protein, UniProt P13693 1-172)
chain: MIIYRDLISHDEMFSDIYKIREIADGLCLEVEGKMVSRTEGNIDDSLIGGNASAEGPEGEGTESTVITGVDIVMNHHLQETSFTKEAYKKYIKDYMKSIKGKLEEQRPERVKPFMTGAAEQIKHILANFKNYQFFIGENMNPDGMVALLDYREDGVTPYMIFFKDGLEMEKC
Turning to B1, the binding entry is reported as “no binding”.
